Assay results reported in patent US7160900B2, “Tetrahydropyridino or piperidino heterocyclic derivatives” (Taisho Pharmaceutical Co., Ltd., priority 2000, dated 2007).
pIC50: −log10 of the molar value. Some entries share one result that the patent states for a list of compounds.

molecular target: T1, CRF receptor (Rattus norvegicus, UniProt P35353); test: CRF receptor bonding test (125I-CRF); conditions: read-out: IC50 value (concentration of the test drug at which binding of 125I-CRF is inhibited by 50%); rat frontal cortex membranes or monkey amygdaloid body membranes; 125I-CRF 0.2 nM; 25° C. for 2 hours
T1 sequence (P35353 24-415): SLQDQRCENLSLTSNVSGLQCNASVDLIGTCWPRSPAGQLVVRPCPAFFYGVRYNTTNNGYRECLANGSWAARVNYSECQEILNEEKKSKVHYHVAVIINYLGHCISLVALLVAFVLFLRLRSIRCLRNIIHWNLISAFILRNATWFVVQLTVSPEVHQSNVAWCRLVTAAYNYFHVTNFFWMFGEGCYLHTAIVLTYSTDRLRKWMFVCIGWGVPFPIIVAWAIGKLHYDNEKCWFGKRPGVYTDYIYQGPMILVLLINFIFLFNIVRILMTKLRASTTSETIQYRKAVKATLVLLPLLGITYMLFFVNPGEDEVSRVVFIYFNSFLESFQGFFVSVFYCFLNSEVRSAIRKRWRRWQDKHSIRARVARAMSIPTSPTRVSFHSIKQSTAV

Row | Structure (SMILES) | pIC50
1 | Cc1cc(C)c(-c2cccc3c(N4CC=C(C(N)=O)CC4)cc(C)nc23)c(C)c1 [1-02] | ≥ 6.30
2 | Cc1cc(N2CC=C(C(N)=O)CC2)c2cc(Cl)cc(-c3ccc(Cl)cc3Cl)c2n1 [1-09] | ≥ 6.30
3 | Cc1cc(-c2ccc(Cl)cc2Cl)c2nc(C)cc(N3CC=C(C(N)=O)CC3)c2c1 [1-10] | ≥ 6.30
4 | Cc1cc(N2CC=C(C(N)=O)CC2)c2cc(F)cc(-c3ccc(Cl)cc3Cl)c2n1 [1-12] | ≥ 6.30
5 | Cc1cc(N2CC=C(C(N)=O)CC2)c2cccc(-c3ccc(Cl)cc3Cl)c2n1 [compound 1-01, 8-(2,4-dichlorophenyl)-4-(4-carbamoyl-1,2,3,6-tetrahydropyridin-1-yl)-2-methylquinoline] | ≥ 6.30
6 | Cc1cc(N2CC=C(CC(N)=O)CC2)c2cccc(-c3ccc(Cl)cc3Cl)c2n1 [compound 1-05, 2-{1-[8-(2,4-dichlorophenyl)-2-methylquinolin-4-yl]-1,2,3,6-tetrahydropyridin-4-yl}-acetamide] | ≥ 6.30
7 | Cc1cc(N2CCC=C(C(N)=O)C2)c2cccc(-c3ccc(Cl)cc3Cl)c2n1 [compound 1-15, 8-(2,4-dichlorophenyl)-4-(5-carbamoyl-1,2,3,6-tetrahydropyridin-1-yl)-2methylquinoline] | ≥ 6.30
